Here are results for one molecule from paper PMC6345853.

This assay concerns the target Fg-Usp7-ΔMATH (Drosophila). Kind of assay: co-IP; S2 cells transfected with tagged constructs, harvested 48 h after transfection, IP and immunoblot; in some panels with co-expressed Hpo, Hpo-KD, Wts or Wts-KD.

No constants are given. Whether binding was seen depends on the method and setting. Binding seen in cells or lysates may run through a third protein. A result given as binding can be weak or reduced; the word gives no strength. Where a sequence is shown, tags or fusion partners need not be part of it.

B1: Myc-Yki (protein, UniProt Q45VV3 1-395)
chain: MLTTMSASSNTNSLIEKEIDDEDMLSPIKSNNLVVRVNQDTDDNLQALFDSVLNPGDAKRPLQLPLRMRKLPNSFFTPPAPSHSRANSADSTYDAGSQSSINIGNKASIVQQPDGQSPIAAIPQLQIQPSPQHSRLAIHHSRARSSPASLQQNYNVRARSDAAAANNPNANPSSQQQPAGPTFPENSAQEFPSGAPASSAIDLDAMNTCMSQDIPMSMQTVHKKQRSYDVISPIQLNRQLGALPPGWEQAKTNDGQIYYLNHTTKSTQWEDPRIQYRQQQQILMAERIKQNDVLQTTKQTTTSTIANNLGPLPDGWEQAVTESGDLYFINHIDRTTSWNDPRMQSGLSVLDCPDNLVSSLQIEDNLCSNLFNDAQAIVNPPSSHKPDDLEWYKIN
In the case of B1, the binding entry is reported as “binds”.
